Measurements reported in PubChem BioAssay AID652259 (Drosophila RNAi Screening Center, 2013)
The deposit covers about 22,000 reagents; below is an unselected part of those with a known target gene and a result. In the full data, 233 (1.1%) are marked active. 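Light values are raw, unnormalised plate reads; the ratio scores behind the reporter calls were not deposited.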 Not given: the amount of reagent, the time to read-out, the dose of the treatment.

- Assay: 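Identify new Wingless signalling regulators in fly cells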 (primary screen)
- Cells: Drosophila clone 8 imaginal disc epithelial cells
- Reagent: long dsRNA against Drosophila genes
- Treatment: pathway stimulated by co-transfected Wingless expression plasmid
- Read-out: 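Dual luciferase reads per well after Wingless plasmid stimulation: reporter firefly light and Renilla control light; activity is firefly divided by Renilla, a ratio not deposited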
- Direction: firefly reporter light: higher = more Wg reporter light, before normalisation; Renilla control light: higher = more transfected or surviving cells
- Rule for the call: 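Strong candidates differ from their plate mean by at least two out of four per-plate statistical tests; weak candidates meet just one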
- Meaning of the calls: active = candidate regulator (raises or lowers reporter); inactive = not a candidate

| firefly reporter light, replicate 1 | firefly reporter light, replicate 2 | Renilla control light, replicate 1 | Renilla control light, replicate 2 | Call | predicted target | dsRNA |
| --- | --- | --- | --- | --- | --- | --- |
| 6887 | – | 2589 | – | inactive | Fpps (GeneID 36209) | DRSC07429 |
| 1857 | 3473 | 1405 | 1610 | inactive | CG31661 (GeneID 33330) | DRSC00296 |
| 1872 | 4944 | 611 | 1767 | inactive | Agxt (GeneID 31587) | DRSC18718 |
| 17552 | – | 3402 | – | inactive | rut (GeneID 32406) | DRSC20367 |
| 5376 | – | 2784 | – | inactive | CG9173 (GeneID 38165) | DRSC08635 |
| 2352 | 7088 | 1281 | 3330 | inactive | NimB5 (GeneID 34815) | DRSC01885 |
| 8016 | – | 3920 | – | inactive | CG12213 (GeneID 41447) | DRSC14478 |
| 7.40e5 | 7.56e5 | 3.11e5 | 2.95e5 | inactive | CG12213 (GeneID 41447) | DRSC22109 |
| 6679 | – | 1628 | – | inactive | CG8839 (GeneID 36340) | DRSC07285 |
| 10528 | – | 2704 | – | inactive | CG15545 (GeneID 43658) | DRSC15083 |
| 2164 | 5868 | 498 | 1980 | inactive | CG12133 (GeneID 36036) | DRSC06108 |
| 15490 | – | 7682 | – | inactive | Gr8a (GeneID 31865) | DRSC18043 |
| 5617 | – | 2220 | – | inactive | ItgaPS4 (GeneID 36693) | DRSC06630 |
| 10469 | – | 8899 | – | inactive | Syt12 (GeneID 32290) | DRSC19359 |
| 7927 | – | 1304 | – | inactive | exp (GeneID 36276) | DRSC06313 |
| 4369 | 9318 | 1024 | 4203 | inactive | Lsm11 (GeneID 36013) | DRSC06238 |
| 14824 | – | 4442 | – | inactive | Pex13 (GeneID 36462) | DRSC06877 |
| 19351 | – | 6586 | – | inactive | CG14731 (GeneID 41442) | DRSC14952 |
| 16052 | – | 6247 | – | inactive | CG34217 (GeneID 5740254) | DRSC05083 |
| 3594 | – | 836 | – | inactive | CR32733 (GeneID 12797943) | DRSC17481 |
| 3799 | – | 1394 | – | inactive | sage (GeneID 41105) | DRSC14580 |
| 7340 | – | 2353 | – | inactive | Cpr56F (GeneID 37299) | DRSC07326 |
| 8006 | – | 2822 | – | inactive | Mayo (GeneID 43678) | DRSC14300 |
| 2465 | 7920 | 743 | 2832 | inactive | rnh1 (GeneID 35746) | DRSC07673 |
| 12794 | – | 10880 | – | inactive | Gat (GeneID 43805) | DRSC17144 |
| 8643 | – | 1378 | – | inactive | ssp (GeneID 39375) | DRSC10252 |
| 2988 | 9640 | 1153 | 4359 | inactive | Try29F (GeneID 34226) | DRSC03466 |
| 7203 | – | 2724 | – | inactive | Ir75a (GeneID 39982) | DRSC10188 |
| 6.38e5 | 5.98e5 | 3.42e5 | 2.43e5 | inactive | swaPsi (GeneID 3771807) | DRSC21685 |

Quoted from above, 2 entries:
| firefly reporter light, replicate 1 | firefly reporter light, replicate 2 | Renilla control light, replicate 1 | Renilla control light, replicate 2 | Call | predicted target | dsRNA |
| --- | --- | --- | --- | --- | --- | --- |
| 8643 | – | 1378 | – | inactive | ssp (GeneID 39375) | DRSC10252 |
| 2988 | 9640 | 1153 | 4359 | inactive | Try29F (GeneID 34226) | DRSC03466 |
